In patent US20130115626A1 (Genentech, published 2013):
No constants are given. Whether binding was seen depends on the method and setting. Some binding calls cover weakened binding; strength is not graded here.

Biological target: T1, human soluble NRP1 antigen (human) (UniProt O14786)
T1 sequence (looked up): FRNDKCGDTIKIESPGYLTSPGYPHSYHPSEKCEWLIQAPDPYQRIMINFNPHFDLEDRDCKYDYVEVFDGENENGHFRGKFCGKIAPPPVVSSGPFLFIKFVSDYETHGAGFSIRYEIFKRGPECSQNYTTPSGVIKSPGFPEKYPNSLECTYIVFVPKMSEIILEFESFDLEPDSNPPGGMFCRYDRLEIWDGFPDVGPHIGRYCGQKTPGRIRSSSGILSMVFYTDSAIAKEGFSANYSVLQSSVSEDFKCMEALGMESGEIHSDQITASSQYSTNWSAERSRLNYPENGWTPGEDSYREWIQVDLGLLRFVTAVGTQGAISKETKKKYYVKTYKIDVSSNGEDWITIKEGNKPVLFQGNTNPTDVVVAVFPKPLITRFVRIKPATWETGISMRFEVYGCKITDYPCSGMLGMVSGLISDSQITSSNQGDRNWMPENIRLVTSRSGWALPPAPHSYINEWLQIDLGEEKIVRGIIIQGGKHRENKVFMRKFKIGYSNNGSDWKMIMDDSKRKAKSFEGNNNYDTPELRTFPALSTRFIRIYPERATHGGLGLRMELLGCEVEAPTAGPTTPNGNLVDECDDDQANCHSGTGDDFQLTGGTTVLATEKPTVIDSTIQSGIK
Test: ELISA screen of hybridoma supernatants and subclones on soluble NRP1 antigen

- binding: binds
B1: monoclonal anti-NRP1 antibody 7130 (antibody, V domains shown)
VH: QLVEESGGGLVTPGGTLTLTCTASGFTISNYHMSWVRQAPGKGLEWIGIIYAVSAATWSATWVKGRFTISKTLTTVDLKMTSLTAADTATYFCARVRAPGDSTYYDLWGPGTLVTVSS
VL: AVVMTQTASPVSAVVGGTVTINCQASQTISNNWLSWYQQKPGQPPKLLIYKASILASGVPSRFSGSGSGTEFTLTISGVQCDDAATYYCLYGHYITTSAHNAFGGGTEVVVKG
notes: Rabbit monoclonal antibody from a hybridoma (rabbit immunised with human soluble NRP1)
